Taken from: PubChem BioAssay AID1508597 (Cure First, 2020)

Aim: 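Survival screen with siRNA in ovarian cancer cells derived from patients, with or without rucaparib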 (primary screen)
System: human ovarian carcinoma lines grown from tumours: OCI-P5x (papillary serous) and OCI-C5x (clear cell)
Reagents: siRNA pool against human genes, 1.25 pmol siRNA per well
Timing: 72 h or 96 h, depending on the cell culture
Treatment: rucaparib 20 µM (about IC30) or vehicle, present until read-out
Detection: 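ATP luminescence measured at 72 or 96 h according to the culture, then normalised and expressed as percent viability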
Reading the numbers: viability, normalised: higher = more viable cells remaining
Call rule: 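a well counts as a hit if its normalised viability is under 80 percent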
Calls: active = viability under 80%; inactive = viability 80% or more
In all, the deposit lists about 2,100 reagents; shown is an unselected part. 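Calls flag viability under 80% in either arm, not effects specific to rucaparib; the reference for percent is not stated.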 A reagent listed more than once was tested more than once; the source does not tell the runs apart. No sequences are given here. Not given: the 100% reference.

no.	Target gene	rucaparib or vehicle	cell line	technical replicate	viability, normalised (%)	activity call
1	KDM1A	Rucaparib	OCI-C5x (clear cell)	1	38.6	active
2	KDM1A	Rucaparib	OCI-C5x (clear cell)	2	37.6	active
3	KDM1A	Rucaparib	OCI-C5x (clear cell)	3	46.5	active
4	KDM1A	Rucaparib	OCI-P5x (serous)	1	56.5	active
5	KDM1A	Rucaparib	OCI-P5x (serous)	2	56.5	active
6	KDM1A	Rucaparib	OCI-P5x (serous)	3	57	active
7	KDM1A	Vehicle	OCI-C5x (clear cell)	1	49.7	active
8	KDM1A	Vehicle	OCI-C5x (clear cell)	2	57.7	active
9	KDM1A	Vehicle	OCI-C5x (clear cell)	3	61.2	active
10	KDM1A	Vehicle	OCI-P5x (serous)	1	61.6	active
11	KDM1A	Vehicle	OCI-P5x (serous)	2	66.8	active
12	KDM1A	Vehicle	OCI-P5x (serous)	3	72.6	active
13	HMGB1	Rucaparib	OCI-C5x (clear cell)	1	67.5	active
14	HMGB1	Rucaparib	OCI-C5x (clear cell)	2	63.3	active
15	HMGB1	Rucaparib	OCI-C5x (clear cell)	3	49.7	active
16	HMGB1	Rucaparib	OCI-P5x (serous)	1	83.6	inactive
17	HMGB1	Rucaparib	OCI-P5x (serous)	2	96	inactive
18	HMGB1	Rucaparib	OCI-P5x (serous)	3	85.7	inactive
19	HMGB1	Vehicle	OCI-C5x (clear cell)	1	35.6	active
20	HMGB1	Vehicle	OCI-C5x (clear cell)	2	49	active
21	HMGB1	Vehicle	OCI-C5x (clear cell)	3	66.1	active
22	HMGB1	Vehicle	OCI-P5x (serous)	1	95.5	inactive
23	HMGB1	Vehicle	OCI-P5x (serous)	2	101	inactive
24	HMGB1	Vehicle	OCI-P5x (serous)	3	93.6	inactive
25	KMT2B	Rucaparib	OCI-C5x (clear cell)	1	43.7	active
26	KMT2B	Rucaparib	OCI-C5x (clear cell)	2	37.4	active
27	KMT2B	Rucaparib	OCI-C5x (clear cell)	3	45.1	active
28	KMT2B	Rucaparib	OCI-P5x (serous)	1	54	active
29	KMT2B	Rucaparib	OCI-P5x (serous)	2	54.8	active
30	KMT2B	Rucaparib	OCI-P5x (serous)	3	59.3	active
31	KMT2B	Vehicle	OCI-C5x (clear cell)	1	54.8	active
32	KMT2B	Vehicle	OCI-C5x (clear cell)	2	46.9	active
33	KMT2B	Vehicle	OCI-C5x (clear cell)	3	53.9	active
34	KMT2B	Vehicle	OCI-P5x (serous)	1	63.5	active
35	KMT2B	Vehicle	OCI-P5x (serous)	2	60.3	active
36	KMT2B	Vehicle	OCI-P5x (serous)	3	62.2	active

Next part (11 carried over from the part before).
no.	Target gene	rucaparib or vehicle	cell line	technical replicate	viability, normalised (%)	activity call
26	KMT2B	Rucaparib	OCI-C5x (clear cell)	2	37.4	active
27	KMT2B	Rucaparib	OCI-C5x (clear cell)	3	45.1	active
28	KMT2B	Rucaparib	OCI-P5x (serous)	1	54	active
29	KMT2B	Rucaparib	OCI-P5x (serous)	2	54.8	active
30	KMT2B	Rucaparib	OCI-P5x (serous)	3	59.3	active
31	KMT2B	Vehicle	OCI-C5x (clear cell)	1	54.8	active
32	KMT2B	Vehicle	OCI-C5x (clear cell)	2	46.9	active
33	KMT2B	Vehicle	OCI-C5x (clear cell)	3	53.9	active
34	KMT2B	Vehicle	OCI-P5x (serous)	1	63.5	active
35	KMT2B	Vehicle	OCI-P5x (serous)	2	60.3	active
36	KMT2B	Vehicle	OCI-P5x (serous)	3	62.2	active
37	NME5	Rucaparib	OCI-C5x (clear cell)	1	51.8	active
38	NME5	Rucaparib	OCI-C5x (clear cell)	1	62	active
39	NME5	Rucaparib	OCI-C5x (clear cell)	2	63.4	active
40	NME5	Rucaparib	OCI-C5x (clear cell)	2	61.9	active
41	NME5	Rucaparib	OCI-C5x (clear cell)	3	59.8	active
42	NME5	Rucaparib	OCI-C5x (clear cell)	3	54.9	active
43	NME5	Rucaparib	OCI-P5x (serous)	1	69.7	active
44	NME5	Rucaparib	OCI-P5x (serous)	1	95.6	inactive
45	NME5	Rucaparib	OCI-P5x (serous)	2	103	inactive
46	NME5	Rucaparib	OCI-P5x (serous)	2	69.5	active
47	NME5	Rucaparib	OCI-P5x (serous)	3	74	active
48	NME5	Rucaparib	OCI-P5x (serous)	3	83.3	inactive
49	NME5	Vehicle	OCI-C5x (clear cell)	1	59.1	active
50	NME5	Vehicle	OCI-C5x (clear cell)	1	51.7	active
51	NME5	Vehicle	OCI-C5x (clear cell)	2	50.1	active
52	NME5	Vehicle	OCI-C5x (clear cell)	2	60.7	active
53	NME5	Vehicle	OCI-C5x (clear cell)	3	46.7	active
54	NME5	Vehicle	OCI-C5x (clear cell)	3	54.4	active
55	NME5	Vehicle	OCI-P5x (serous)	1	80.6	inactive
56	NME5	Vehicle	OCI-P5x (serous)	1	93.3	inactive
57	NME5	Vehicle	OCI-P5x (serous)	2	72.9	active
58	NME5	Vehicle	OCI-P5x (serous)	2	81.4	inactive
59	NME5	Vehicle	OCI-P5x (serous)	3	81.1	inactive
60	NME5	Vehicle	OCI-P5x (serous)	3	90.7	inactive
61	NEIL1	Rucaparib	OCI-C5x (clear cell)	1	46.1	active
62	NEIL1	Rucaparib	OCI-C5x (clear cell)	1	36.2	active
63	NEIL1	Rucaparib	OCI-C5x (clear cell)	2	67.9	active
64	NEIL1	Rucaparib	OCI-C5x (clear cell)	2	60.4	active
65	NEIL1	Rucaparib	OCI-C5x (clear cell)	3	48.7	active
66	NEIL1	Rucaparib	OCI-C5x (clear cell)	3	84.7	inactive
67	NEIL1	Rucaparib	OCI-P5x (serous)	1	82.2	inactive
68	NEIL1	Rucaparib	OCI-P5x (serous)	1	121	inactive
69	NEIL1	Rucaparib	OCI-P5x (serous)	2	113	inactive
70	NEIL1	Rucaparib	OCI-P5x (serous)	2	67.6	active
71	NEIL1	Rucaparib	OCI-P5x (serous)	3	107	inactive
72	NEIL1	Rucaparib	OCI-P5x (serous)	3	76.8	active
73	NEIL1	Vehicle	OCI-C5x (clear cell)	1	53.2	active
74	NEIL1	Vehicle	OCI-C5x (clear cell)	1	67.3	active
75	NEIL1	Vehicle	OCI-C5x (clear cell)	2	58.6	active
76	NEIL1	Vehicle	OCI-C5x (clear cell)	2	48.9	active
77	NEIL1	Vehicle	OCI-C5x (clear cell)	3	67.4	active
78	NEIL1	Vehicle	OCI-C5x (clear cell)	3	53.1	active
79	NEIL1	Vehicle	OCI-P5x (serous)	1	99.7	inactive
80	NEIL1	Vehicle	OCI-P5x (serous)	1	55.2	active
81	NEIL1	Vehicle	OCI-P5x (serous)	2	103	inactive
82	NEIL1	Vehicle	OCI-P5x (serous)	2	59.6	active
83	NEIL1	Vehicle	OCI-P5x (serous)	3	79.3	active
84	NEIL1	Vehicle	OCI-P5x (serous)	3	110	inactive
